No constants are given. Whether binding was seen depends on the method and setting. Binding seen in cells or lysates may run through a third protein. Some entries that bind do so weakly or less than the wild type.
Target: ADGRG2 full-length (ADGRG2-FL)-YFP (mouse) (UniProt Q8CJ12)
Assay: FRET or BRET; HEK293 cells transiently transfected with ADGRG2-YFP and β-arrestin1-Rluc or β-arrestin2-Rluc; cells in PBS with 0.1% glucose at room temperature, in the presence or absence of ADGRG2 Stachel peptides (p15, VPM-p15) for 1 min; coelenterazine 400a

By UniProt entry, the sequences of proteins in these tests, tags left out. Where a name states a change or a piece, a line headed by the entry shows the natural chain unless it says otherwise. Chains listed by the source or under a name are the forms on record and can include a tag or linker.
ADGRG2 full-length (ADGRG2-FL)-YFP (Q8CJ12, form named): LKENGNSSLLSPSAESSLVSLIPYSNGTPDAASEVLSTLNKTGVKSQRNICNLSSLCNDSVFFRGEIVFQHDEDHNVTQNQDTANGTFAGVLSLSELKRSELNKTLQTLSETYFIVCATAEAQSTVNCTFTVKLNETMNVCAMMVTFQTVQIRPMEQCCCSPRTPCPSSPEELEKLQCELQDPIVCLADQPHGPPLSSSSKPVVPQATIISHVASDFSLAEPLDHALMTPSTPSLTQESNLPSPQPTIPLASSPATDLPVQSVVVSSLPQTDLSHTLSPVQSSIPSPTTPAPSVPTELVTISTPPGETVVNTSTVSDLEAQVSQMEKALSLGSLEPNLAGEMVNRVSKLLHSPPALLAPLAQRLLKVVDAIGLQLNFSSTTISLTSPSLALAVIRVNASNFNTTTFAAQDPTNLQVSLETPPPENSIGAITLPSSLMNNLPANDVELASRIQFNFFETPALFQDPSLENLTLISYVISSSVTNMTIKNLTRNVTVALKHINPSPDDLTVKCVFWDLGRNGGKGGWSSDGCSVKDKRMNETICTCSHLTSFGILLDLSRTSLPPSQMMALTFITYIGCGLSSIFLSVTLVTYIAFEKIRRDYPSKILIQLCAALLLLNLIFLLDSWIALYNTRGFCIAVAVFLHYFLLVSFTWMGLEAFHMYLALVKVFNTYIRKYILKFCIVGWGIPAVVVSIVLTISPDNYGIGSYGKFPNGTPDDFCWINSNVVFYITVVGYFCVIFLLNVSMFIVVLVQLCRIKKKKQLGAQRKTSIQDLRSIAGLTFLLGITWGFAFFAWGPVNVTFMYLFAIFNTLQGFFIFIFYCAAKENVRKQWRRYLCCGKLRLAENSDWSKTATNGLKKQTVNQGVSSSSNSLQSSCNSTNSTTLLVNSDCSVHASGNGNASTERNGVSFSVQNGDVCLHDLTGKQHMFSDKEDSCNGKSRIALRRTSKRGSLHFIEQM
UniProt P49407: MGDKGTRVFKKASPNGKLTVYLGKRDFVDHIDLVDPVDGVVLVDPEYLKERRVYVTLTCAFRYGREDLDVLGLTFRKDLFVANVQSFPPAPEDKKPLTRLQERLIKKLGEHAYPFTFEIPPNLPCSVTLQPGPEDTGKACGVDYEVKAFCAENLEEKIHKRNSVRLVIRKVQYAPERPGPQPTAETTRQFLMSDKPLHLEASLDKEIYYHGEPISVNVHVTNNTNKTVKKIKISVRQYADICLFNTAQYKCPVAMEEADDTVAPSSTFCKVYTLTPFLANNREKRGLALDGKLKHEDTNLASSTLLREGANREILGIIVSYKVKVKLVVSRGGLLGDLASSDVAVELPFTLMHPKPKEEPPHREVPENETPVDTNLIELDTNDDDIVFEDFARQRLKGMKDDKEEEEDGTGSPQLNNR
UniProt P32121: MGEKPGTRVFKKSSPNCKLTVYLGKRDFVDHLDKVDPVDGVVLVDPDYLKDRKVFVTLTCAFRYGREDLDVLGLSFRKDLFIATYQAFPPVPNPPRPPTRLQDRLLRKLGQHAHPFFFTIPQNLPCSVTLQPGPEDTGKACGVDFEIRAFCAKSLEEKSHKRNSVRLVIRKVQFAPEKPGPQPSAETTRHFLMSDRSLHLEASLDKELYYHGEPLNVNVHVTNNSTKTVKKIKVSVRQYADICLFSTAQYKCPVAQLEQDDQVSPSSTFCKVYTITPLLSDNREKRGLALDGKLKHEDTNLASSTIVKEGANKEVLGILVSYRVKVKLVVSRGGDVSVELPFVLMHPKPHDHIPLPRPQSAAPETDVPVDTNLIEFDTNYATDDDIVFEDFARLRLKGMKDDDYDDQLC

Row | binding | Substance
1 | binds | β-arrestin1-Rluc (from UniProt P49407 1-418)
2 | binds | β-arrestin2-Rluc (from UniProt P32121 1-409)

From paper PMC7948503, “Optimization of a peptide ligand for the adhesion GPCR ADGRG2 provides a potent tool to explore receptor biology” (The Journal of Biological Chemistry, 2020)
